No constants are given. Whether binding was seen depends on the method and setting. Some results given as binding are weak or reduced against the parent protein; the word gives no strength.

Protein sequences, listed by entry. Tags and fused reporters are not part of them. Lines headed by an entry give the natural chain unless they say otherwise; changes in a name come on top.
UniProt P07766: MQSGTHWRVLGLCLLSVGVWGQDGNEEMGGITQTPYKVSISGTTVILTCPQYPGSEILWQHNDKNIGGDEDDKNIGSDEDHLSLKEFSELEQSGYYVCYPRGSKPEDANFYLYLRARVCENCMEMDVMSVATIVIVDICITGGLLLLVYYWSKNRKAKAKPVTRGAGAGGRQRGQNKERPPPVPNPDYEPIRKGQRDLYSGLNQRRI
UniProt P04234: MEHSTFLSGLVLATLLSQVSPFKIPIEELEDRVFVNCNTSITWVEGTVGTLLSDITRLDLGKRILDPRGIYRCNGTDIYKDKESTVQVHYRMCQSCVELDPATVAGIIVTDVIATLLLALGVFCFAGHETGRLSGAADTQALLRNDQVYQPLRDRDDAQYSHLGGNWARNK

This assay deals with 인간 CD3 (1차 인간 T 세포 상) (human) (UniProt P07766+P04234). Description: flow cytometry on CD3 expressing primary human T cells. Background: Flow cytometry measures light scatter and fluorescence of single cells or particles in a stream.

B1: B7-H4xCD3 이중특이적 항체 1167 (bispecific antibody)
heavy 1: EVQLLESGGGLVQPGGSLRLSCAASGFTFSSYAMSWVRQAPGKGLEWVSAISGGGGSTYYADSVKGRFTISRDNSKNTLYLQMNSLRAEDTAVYYCARDIQWYGESTLFDYWGQGTLVTVSSASTKGPSVFPLAPCSRSTSESTAALGCLVKDYFPEPVTVSWNSGALTSGVHTFPAVLQSSGLYSLSSVVTVPSSNFGTQTYTCNVDHKPSNTKVDKTVERKCEVECPECPAPPVAGPSVFLFPPKPKDTLMISRTPEVTCVVVAVSHEDPEVQFNWYVDGVEVHNAKTKPREEQFNSTFRVVSVLTVVHQDWLNGKEYKCKVSNKGLPSSIEKTISKTKGQPREPQVYTLPPSREEMTKNQVSLTCEVKGFYPSDIAVEWESNGQPENNYKTTPPMLDSDGSFFLYSKLTVDKSRWQQGNVFSCSVMHEALHNHYTQKSLSLSPGK
light 1: DIQMTQSPSSLSASVGDRVTITCRASQSTRSHLAWYQQKPGKAPKLLIYKASSLEGGVPSRFSGSGSGTDFTLTISSLQPEDFATYYCQQYGSYSRTFGQGTKVEIKRTVAAPSVFIFPPSDEQLKSGTASVVCLLNNFYPREAKVQWKVDNALQSGNSQESVTEQDSKDSTYSLSSTLTLSKADYEKHKVYACEVTHQGLSSPVTKSFNRGEC
heavy 2: EVQLVESGGGLVQPGGSLRLSCAASGFTFSDYYMTWVRQAPGKGLEWVAFIRNQARGYTSDHNPSVKGRFTISRDNAKNSLYLQMNSLRAEDTAVYYCARDRPSYYVLDYWGQGTTVTVSSASTKGPSVFPLAPCSRSTSESTAALGCLVKDYFPEPVTVSWNSGALTSGVHTFPAVLQSSGLYSLSSVVTVPSSNFGTQTYTCNVDHKPSNTKVDKTVERKCRVRCPRCPAPPVAGPSVFLFPPKPKDTLMISRTPEVTCVVVAVSHEDPEVQFNWYVDGVEVHNAKTKPREEQFNSTFRVVSVLTVVHQDWLNGKEYKCKVSNKGLPSSIEKTISKTKGQPREPQVYTLPPSREEMTKNQVSLTCLVKGFYPSDIAVEWESNGQPENNYKTTPPMLDSDGSFFLYSRLTVDKSRWQQGNVFSCSVMHEALHNHYTQKSLSLSPGK
light 2: DIQMTQSPSSLSASVGDRVTITCTSSQSLFNVRSQKNYLAWYQQKPGKAPKLLIYWASTRESGVPSRFSGSGSGTDFTLTISSLQPEDFATYYCKQSYDLFTFGGGTKVEIKRTVAAPSVFIFPPSDEQLKSGTASVVCLLNNFYPREAKVQWKVDNALQSGNSQESVTEQDSKDSTYSLSSTLTLSKADYEKHKVYACEVTHQGLSSPVTKSFNRGEC
Consider B1, for which the binding entry is recorded as “binds”.

These data come from patent KR20230107478A.
